# Laboratory results: the supplement of paper PMC8728848
# This is one part of the list.
# How the values were obtained:
# Assay in all cases: glycan array binding signal (z-score within array); higher = stronger binding
# Settings in all cases: glycan notation: IUPAC condensed, linker removed
# Gal6S(b1-4)GlcNAc6S = system: Gal6S(b1-4)GlcNAc6S
# Outline: (§1)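 From the Consortium for Functional Glycomics database, 3228 arrays were curated, keeping only those whose protein sequence was available. Binding is given as a within-array Z-score averaged across arrays sharing a protein sequence and across linkers. Negative Z-scores can be read as non-binding.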
# Gal6S(b1-4)GlcNAc = system: Gal6S(b1-4)GlcNAc
# Outline: as §1
# Gal6S(b1-4)Glc = system: Gal6S(b1-4)Glc
# Outline: as §1
# [1] = system: GalNAc(a1-3)GalNAc(b1-3)Gal(a1-4)Gal(b1-4)GlcNAc
# Outline: as §1
# [2] = system: GalNAc(a1-3)GalNAc(b1-3)Gal(a1-4)Gal(b1-4)Glc
# Outline: as §1
# GalNAc(a1-3)GalNAc = system: GalNAc(a1-3)GalNAc
# Outline: as §1
# GalNAc(a1-3)Gal = system: GalNAc(a1-3)Gal
# Outline: as §1
# [3] = system: GalNAc(b1-3)Gal(a1-4)Gal(b1-4)GlcNAc(b1-3)Gal(b1-4)Glc
# Outline: as §1
# [4] = system: GalNAc(b1-3)Gal(a1-4)Gal(b1-4)GlcNAc
# Outline: as §1
# [5] = system: GalNAc(b1-3)Gal(a1-6)Gal(b1-4)Glc
# Outline: as §1
# GalNAc(b1-3)GalNAc = system: GalNAc(b1-3)GalNAc
# Outline: as §1
# GalNAc(b1-3)Gal = system: GalNAc(b1-3)Gal
# Outline: as §1
# GalNAc(b1-3)GlcNAc = system: GalNAc(b1-3)GlcNAc
# Outline: as §1
# GalNAc(b1-4)Gal(b1-4)Glc = system: GalNAc(b1-4)Gal(b1-4)Glc
# Outline: as §1
# [6] = system: GalNAc(b1-4)GlcNAc(b1-2)Man(a1-3)[GalNAc(b1-4)GlcNAc(b1-2)Man(a1-6)]Man(b1-4)GlcNAc(b1-4)GlcNAc
# Outline: as §1
# [7] = system: GalNAc(b1-4)GlcNAc(b1-2)Man
# Outline: as §1
# [8] = system: GalNAc(b1-4)GlcNAc(b1-3)GalNAc(b1-4)GlcNAc
# Outline: as §1
# GalNAc(b1-4)GlcNAc6S = system: GalNAc(b1-4)GlcNAc6S
# Outline: as §1
# GalNAc(b1-4)GlcNAc = system: GalNAc(b1-4)GlcNAc
# Outline: as §1
# GalNAc(b1-6)GalNAc = system: GalNAc(b1-6)GalNAc
# Outline: as §1
# GalNAc3S(b1-4)GlcNAc3S = system: GalNAc3S(b1-4)GlcNAc3S
# Outline: as §1
# GalNAc3S(b1-4)GlcNAc = system: GalNAc3S(b1-4)GlcNAc
# Outline: as §1
# [9] = system: GalNAc3S(b1-4)[Fuc(a1-3)]GlcNAc
# Outline: as §1
# GalNAc4S6S(b1-4)GlcNAc = system: GalNAc4S6S(b1-4)GlcNAc
# Outline: as §1
# GalNAc6S(b1-4)GlcNAc = system: GalNAc6S(b1-4)GlcNAc
# Outline: as §1
# [10] = system: Glc(a1-4)Glc(a1-4)Glc(a1-4)Glc
# Outline: as §1
# Glc(a1-4)Glc = system: Glc(a1-4)Glc
# Outline: as §1
# [11] = system: Glc(a1-6)Glc(a1-6)Glc(a1-6)Glc
# Outline: as §1
# Glc(a1-6)Glc(a1-6)Glc = system: Glc(a1-6)Glc(a1-6)Glc
# Outline: as §1
# Glc(b1-4)Glc = system: Glc(b1-4)Glc
# Outline: as §1
# Glc(b1-6)Glc = system: Glc(b1-6)Glc
# Outline: as §1
# GlcA(b1-3)Gal = system: GlcA(b1-3)Gal
# Outline: as §1
# GlcA(b1-3)GlcNAc = system: GlcA(b1-3)GlcNAc
# Outline: as §1
# GlcA(b1-6)Gal = system: GlcA(b1-6)Gal
# Outline: as §1
# [12] = system: GlcA3S(b1-3)Gal(b1-4)GlcNAc(b1-2)Man
# Outline: as §1
# [13] = system: GlcA3S(b1-3)Gal(b1-4)GlcNAc(b1-3)Gal(b1-4)Glc
# Outline: as §1
# [14] = system: GlcNAc(a1-3)Gal(b1-4)GlcNAc
# Outline: as §1
# [15] = system: GlcNAc(a1-4)Gal(b1-3)GlcNAc
# Outline: as §1
# [16] = system: GlcNAc(a1-4)Gal(b1-4)GalNAc
# Outline: as §1
# [17] = system: GlcNAc(a1-4)Gal(b1-4)GlcNAc(b1-3)Gal(b1-4)GlcNAc(b1-3)Gal(b1-4)GlcNAc
# Outline: as §1
# [18] = system: GlcNAc(a1-4)Gal(b1-4)GlcNAc(b1-3)Gal(b1-4)GlcNAc
# Outline: as §1
# [19] = system: GlcNAc(a1-4)Gal(b1-4)GlcNAc(b1-3)Gal(b1-4)Glc
# Outline: as §1
# [20] = system: GlcNAc(a1-4)Gal(b1-4)GlcNAc(b1-3)Gal(b1-4)[Fuc(a1-3)]GlcNAc(b1-3)Gal(b1-4)[Fuc(a1-3)]GlcNAc
# Outline: as §1
# [21] = system: GlcNAc(a1-4)Gal(b1-4)GlcNAc
# Outline: as §1
# [22] = system: GlcNAc(a1-6)Gal(b1-4)GlcNAc
# Outline: as §1
# [23] = system: GlcNAc(b1-2)Gal(b1-3)GalNAc
# Outline: as §1
# [24] = system: GlcNAc(b1-2)Man(a1-3)[GlcNAc(b1-2)Man(a1-6)]Man(b1-4)GlcNAc(b1-4)GlcNAc
# Outline: as §1
# [25] = system: GlcNAc(b1-2)Man(a1-3)[GlcNAc(b1-2)Man(a1-6)]Man(b1-4)GlcNAc(b1-4)[Fuc(a1-6)]GlcNAc
# Outline: as §1
# [26] = system: GlcNAc(b1-2)Man(a1-3)[GlcNAc(b1-4)][GlcNAc(b1-2)Man(a1-6)]Man(b1-4)GlcNAc(b1-4)GlcNAc
# Outline: as §1
# [27] = system: GlcNAc(b1-2)Man(a1-3)[GlcNAc(b1-4)][GlcNAc(b1-2)Man(a1-6)]Man(b1-4)GlcNAc(b1-4)[Fuc(a1-6)]GlcNAc
# Outline: as §1
# [28] = system: GlcNAc(b1-2)[GlcNAc(b1-4)]Man(a1-3)[GlcNAc(b1-2)Man(a1-6)]Man(b1-4)GlcNAc(b1-4)GlcNAc
# Outline: as §1
# [29] = system: GlcNAc(b1-2)[GlcNAc(b1-4)]Man(a1-3)[GlcNAc(b1-4)][GlcNAc(b1-2)Man(a1-6)]Man(b1-4)GlcNAc(b1-4)GlcNAc
# Outline: as §1
# [30] = system: GlcNAc(b1-2)[GlcNAc(b1-4)]Man(a1-3)[GlcNAc(b1-4)][GlcNAc(b1-2)[GlcNAc(b1-6)]Man(a1-6)]Man(b1-4)GlcNAc(b1-4)GlcNAc
# Outline: as §1
# [31] = system: GlcNAc(b1-2)[GlcNAc(b1-4)]Man(a1-3)[GlcNAc(b1-4)][GlcNAc(b1-2)[GlcNAc(b1-6)]Man(a1-6)]Man(b1-4)GlcNAc(b1-4)[Fuc(a1-6)]GlcNAc
# Outline: as §1
# [32] = system: GlcNAc(b1-2)[GlcNAc(b1-6)]Man(a1-6)[GlcNAc(b1-2)Man(a1-3)]Man(b1-4)GlcNAc(b1-4)GlcNAc
# Outline: as §1
# [33] = system: GlcNAc(b1-2)[GlcNAc(b1-6)]Man(a1-6)[GlcNAc(b1-2)Man(a1-3)]Man(b1-4)GlcNAc(b1-4)[Fuc(a1-6)]GlcNAc
# Outline: as §1
# [34] = system: GlcNAc(b1-2)[GlcNAc(b1-6)]Man(a1-6)[GlcNAc(b1-4)][GlcNAc(b1-2)Man(a1-3)]Man(b1-4)GlcNAc(b1-4)GlcNAc
# Outline: as §1
# GlcNAc(b1-3)Fuc = system: GlcNAc(b1-3)Fuc
# Outline: as §1
# [35] = system: GlcNAc(b1-3)Gal(b1-3)GalNAc
# Outline: as §1
# [36] = system: GlcNAc(b1-3)Gal(b1-4)GlcNAc(b1-2)Man(a1-3)[GlcNAc(b1-3)Gal(b1-4)GlcNAc(b1-2)Man(a1-6)]Man(b1-4)GlcNAc(b1-4)GlcNAc
# Outline: as §1
# [37] = system: GlcNAc(b1-3)Gal(b1-4)GlcNAc(b1-2)Man(a1-3)[GlcNAc(b1-3)Gal(b1-4)GlcNAc(b1-2)Man(a1-6)]Man(b1-4)GlcNAc(b1-4)[Fuc(a1-6)]GlcNAc
# Outline: as §1
# [38] = system: GlcNAc(b1-3)Gal(b1-4)GlcNAc(b1-2)[GlcNAc(b1-3)Gal(b1-4)GlcNAc(b1-6)]Man(a1-6)[GlcNAc(b1-3)Gal(b1-4)GlcNAc(b1-2)Man(a1-3)]Man(b1-4)GlcNAc(b1-4)GlcNAc
# Outline: as §1
# [39] = system: GlcNAc(b1-3)Gal(b1-4)GlcNAc(b1-3)Gal(b1-4)GlcNAc(b1-2)Man(a1-3)[GlcNAc(b1-3)Gal(b1-4)GlcNAc(b1-3)Gal(b1-4)GlcNAc(b1-2)Man(a1-6)]Man(b1-4)GlcNAc(b1-4)GlcNAc
# Outline: as §1
# [40] = system: GlcNAc(b1-3)Gal(b1-4)GlcNAc(b1-3)Gal(b1-4)GlcNAc(b1-2)Man(a1-3)[GlcNAc(b1-3)Gal(b1-4)GlcNAc(b1-3)Gal(b1-4)GlcNAc(b1-2)Man(a1-6)]Man(b1-4)GlcNAc(b1-4)[Fuc(a1-6)]GlcNAc
# Outline: as §1
substance,measurement,setting,value
MpAFP RI GFP (Marinomonas primoryensis),glycan array binding signal (z-score),Gal6S(b1-4)GlcNAc6S,-0.922
same,glycan array binding signal (z-score),Gal6S(b1-4)GlcNAc,-0.634
same,glycan array binding signal (z-score),Gal6S(b1-4)Glc,-0.079
same,glycan array binding signal (z-score),[1],-0.635
same,glycan array binding signal (z-score),[2],-0.69
same,glycan array binding signal (z-score),GalNAc(a1-3)GalNAc,-0.566
same,glycan array binding signal (z-score),GalNAc(a1-3)Gal,-0.469
same,glycan array binding signal (z-score),[3],-0.495
same,glycan array binding signal (z-score),[4],0.291
same,glycan array binding signal (z-score),[5],-0.618
same,glycan array binding signal (z-score),GalNAc(b1-3)GalNAc,-0.69
same,glycan array binding signal (z-score),GalNAc(b1-3)Gal,-0.57
same,glycan array binding signal (z-score),GalNAc(b1-3)GlcNAc,-0.595
same,glycan array binding signal (z-score),GalNAc(b1-4)Gal(b1-4)Glc,0.384
same,glycan array binding signal (z-score),[6],0.824
same,glycan array binding signal (z-score),[7],-0.208
same,glycan array binding signal (z-score),[8],0.472
same,glycan array binding signal (z-score),GalNAc(b1-4)GlcNAc6S,-0.46
same,glycan array binding signal (z-score),GalNAc(b1-4)GlcNAc,0.281
same,glycan array binding signal (z-score),GalNAc(b1-6)GalNAc,-0.532
same,glycan array binding signal (z-score),GalNAc3S(b1-4)GlcNAc3S,-0.53
same,glycan array binding signal (z-score),GalNAc3S(b1-4)GlcNAc,-0.63
same,glycan array binding signal (z-score),[9],-0.443
same,glycan array binding signal (z-score),GalNAc4S6S(b1-4)GlcNAc,-0.557
same,glycan array binding signal (z-score),GalNAc6S(b1-4)GlcNAc,-0.789
same,glycan array binding signal (z-score),[10],-0.189
same,glycan array binding signal (z-score),Glc(a1-4)Glc,1.23
same,glycan array binding signal (z-score),[11],-0.208
same,glycan array binding signal (z-score),Glc(a1-6)Glc(a1-6)Glc,-0.421
same,glycan array binding signal (z-score),Glc(b1-4)Glc,0.208
same,glycan array binding signal (z-score),Glc(b1-6)Glc,-0.091
same,glycan array binding signal (z-score),GlcA(b1-3)Gal,-0.624
same,glycan array binding signal (z-score),GlcA(b1-3)GlcNAc,-0.843
same,glycan array binding signal (z-score),GlcA(b1-6)Gal,-0.318
same,glycan array binding signal (z-score),[12],-0.704
same,glycan array binding signal (z-score),[13],-0.571
same,glycan array binding signal (z-score),[14],-0.119
same,glycan array binding signal (z-score),[15],-0.491
same,glycan array binding signal (z-score),[16],-0.203
same,glycan array binding signal (z-score),[17],-0.687
same,glycan array binding signal (z-score),[18],-0.066
same,glycan array binding signal (z-score),[19],-0.368
same,glycan array binding signal (z-score),[20],0.607
same,glycan array binding signal (z-score),[21],-0.413
same,glycan array binding signal (z-score),[22],-0.68
same,glycan array binding signal (z-score),[23],-0.363
same,glycan array binding signal (z-score),[24],0.351
same,glycan array binding signal (z-score),[25],-0.205
same,glycan array binding signal (z-score),[26],-0.188
same,glycan array binding signal (z-score),[27],-0.359
same,glycan array binding signal (z-score),[28],-0.421
same,glycan array binding signal (z-score),[29],-0.502
same,glycan array binding signal (z-score),[30],-0.185
same,glycan array binding signal (z-score),[31],-0.405
same,glycan array binding signal (z-score),[32],0.019
same,glycan array binding signal (z-score),[33],0.221
same,glycan array binding signal (z-score),[34],-0.848
same,glycan array binding signal (z-score),GlcNAc(b1-3)Fuc,0.273
same,glycan array binding signal (z-score),[35],-0.475
same,glycan array binding signal (z-score),[36],0.827
same,glycan array binding signal (z-score),[37],2.56
same,glycan array binding signal (z-score),[38],5.77
same,glycan array binding signal (z-score),[39],1.89
same,glycan array binding signal (z-score),[40],2.86

# Copied from the results shown for reference:
substance,measurement,setting,value
MpAFP RI GFP (Marinomonas primoryensis),glycan array binding signal (z-score),[29],-0.502
same,glycan array binding signal (z-score),[30],-0.185
same,glycan array binding signal (z-score),[31],-0.405
same,glycan array binding signal (z-score),[32],0.019
same,glycan array binding signal (z-score),[33],0.221
same,glycan array binding signal (z-score),[34],-0.848
same,glycan array binding signal (z-score),GlcNAc(b1-3)Fuc,0.273
same,glycan array binding signal (z-score),[35],-0.475
same,glycan array binding signal (z-score),[36],0.827
same,glycan array binding signal (z-score),[37],2.56
same,glycan array binding signal (z-score),[38],5.77
same,glycan array binding signal (z-score),[39],1.89
same,glycan array binding signal (z-score),[40],2.86
